Test results taken from PMC11648352.
These are yes or no findings as the source states them, for the method shown. For part of these data: In cells and extracts the contact can be indirect. Some binding calls cover weakened binding; strength is not graded here.

The chains behind the UniProt entries cited, without tags or fusion partners.
UniProt P17844: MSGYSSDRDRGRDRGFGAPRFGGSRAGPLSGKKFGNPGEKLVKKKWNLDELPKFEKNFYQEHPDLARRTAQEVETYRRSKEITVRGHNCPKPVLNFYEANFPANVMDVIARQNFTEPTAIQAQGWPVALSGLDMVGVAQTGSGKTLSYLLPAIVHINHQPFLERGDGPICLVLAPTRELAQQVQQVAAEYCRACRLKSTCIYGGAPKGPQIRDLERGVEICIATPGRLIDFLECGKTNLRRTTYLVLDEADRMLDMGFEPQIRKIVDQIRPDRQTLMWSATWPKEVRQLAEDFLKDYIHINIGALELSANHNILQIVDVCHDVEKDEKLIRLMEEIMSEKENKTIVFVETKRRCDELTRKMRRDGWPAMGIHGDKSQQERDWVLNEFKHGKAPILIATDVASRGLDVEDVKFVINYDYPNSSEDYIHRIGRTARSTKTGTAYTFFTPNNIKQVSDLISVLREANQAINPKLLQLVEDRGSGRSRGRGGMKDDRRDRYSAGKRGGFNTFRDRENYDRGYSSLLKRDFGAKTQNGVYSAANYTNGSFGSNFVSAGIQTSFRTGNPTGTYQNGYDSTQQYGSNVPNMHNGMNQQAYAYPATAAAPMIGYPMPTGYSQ
UniProt Q09028: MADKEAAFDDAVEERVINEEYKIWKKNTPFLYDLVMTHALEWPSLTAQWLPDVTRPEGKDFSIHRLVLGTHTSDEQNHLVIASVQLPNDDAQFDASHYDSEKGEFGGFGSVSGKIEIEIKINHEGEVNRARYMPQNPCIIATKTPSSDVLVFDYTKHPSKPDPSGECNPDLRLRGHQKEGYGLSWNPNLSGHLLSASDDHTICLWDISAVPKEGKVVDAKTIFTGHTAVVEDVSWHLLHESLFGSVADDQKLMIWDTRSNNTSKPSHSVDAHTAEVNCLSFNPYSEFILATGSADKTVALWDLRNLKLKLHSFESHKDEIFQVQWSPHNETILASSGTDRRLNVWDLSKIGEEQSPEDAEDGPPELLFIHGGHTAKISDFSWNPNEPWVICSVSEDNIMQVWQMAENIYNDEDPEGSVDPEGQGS
UniProt Q15022: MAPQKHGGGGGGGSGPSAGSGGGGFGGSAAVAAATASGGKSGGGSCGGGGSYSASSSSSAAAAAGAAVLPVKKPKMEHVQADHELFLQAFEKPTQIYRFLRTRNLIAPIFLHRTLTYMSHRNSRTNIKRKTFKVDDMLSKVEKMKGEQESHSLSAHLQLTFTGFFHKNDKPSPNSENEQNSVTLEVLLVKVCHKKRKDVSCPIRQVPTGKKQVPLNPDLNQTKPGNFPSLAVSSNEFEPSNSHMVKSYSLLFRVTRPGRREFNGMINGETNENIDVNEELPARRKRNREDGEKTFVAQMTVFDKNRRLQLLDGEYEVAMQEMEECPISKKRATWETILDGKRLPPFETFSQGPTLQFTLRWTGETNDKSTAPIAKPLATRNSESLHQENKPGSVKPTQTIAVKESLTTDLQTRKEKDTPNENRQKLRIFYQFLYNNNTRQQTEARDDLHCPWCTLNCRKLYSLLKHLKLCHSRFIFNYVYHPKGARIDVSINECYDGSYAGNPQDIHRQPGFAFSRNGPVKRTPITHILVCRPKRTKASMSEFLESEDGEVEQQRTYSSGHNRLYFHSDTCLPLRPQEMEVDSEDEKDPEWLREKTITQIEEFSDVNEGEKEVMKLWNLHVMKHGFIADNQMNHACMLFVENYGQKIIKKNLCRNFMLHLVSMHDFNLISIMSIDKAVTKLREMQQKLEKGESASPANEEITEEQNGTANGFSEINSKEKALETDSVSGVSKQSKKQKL
UniProt Q16666: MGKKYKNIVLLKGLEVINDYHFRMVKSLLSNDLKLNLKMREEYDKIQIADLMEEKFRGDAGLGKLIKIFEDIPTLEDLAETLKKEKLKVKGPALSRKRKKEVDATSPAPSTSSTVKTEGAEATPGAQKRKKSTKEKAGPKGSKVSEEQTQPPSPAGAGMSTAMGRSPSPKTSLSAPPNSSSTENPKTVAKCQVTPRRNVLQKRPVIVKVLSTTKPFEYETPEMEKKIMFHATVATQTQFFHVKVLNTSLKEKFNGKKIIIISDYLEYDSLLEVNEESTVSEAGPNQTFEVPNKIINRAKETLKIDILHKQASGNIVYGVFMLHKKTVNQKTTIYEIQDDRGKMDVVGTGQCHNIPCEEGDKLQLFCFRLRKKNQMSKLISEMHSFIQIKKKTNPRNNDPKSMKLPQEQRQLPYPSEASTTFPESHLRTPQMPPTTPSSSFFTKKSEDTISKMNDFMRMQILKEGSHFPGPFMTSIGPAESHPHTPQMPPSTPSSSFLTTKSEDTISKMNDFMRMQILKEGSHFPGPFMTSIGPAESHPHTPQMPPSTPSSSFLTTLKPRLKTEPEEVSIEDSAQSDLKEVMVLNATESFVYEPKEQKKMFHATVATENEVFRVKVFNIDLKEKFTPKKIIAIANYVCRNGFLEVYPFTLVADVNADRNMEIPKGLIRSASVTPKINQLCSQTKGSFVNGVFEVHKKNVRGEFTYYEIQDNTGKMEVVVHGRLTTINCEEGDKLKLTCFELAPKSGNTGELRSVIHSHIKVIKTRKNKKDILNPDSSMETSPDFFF

Columns and labels:
[1] = target: endogenous DDX5 (human (endogenous in HepaRG)) (UniProt P17844); test: co-IP; HepaRG native whole-cell lysates immunoprecipitated with DDX5 Ab or IgG, immunoblots (endogenous proteins)
[2] = target: FLAG-DDX5 (RNA helicase DEAD box protein 5, wild type) (UniProt P17844); test: co-IP; whole-cell extract of Dox-inducible FLAG-DDX5 HepaRG cells grown with or without doxycycline (1.0 µg/mL, 48 h), immunoprecipitated with FLAG Ab or IgG, immunoblots
[3] = target: FLAG-DDX5 (RNA helicase DEAD box protein 5, wild type) (UniProt P17844); test: co-IP + native gel or EMSA; native nuclear lysates of Dox-inducible FLAG-DDX5 HepaRG cells (1.0 µg/mL Dox and 500 ng/mL IFN-α, 48 h) immunoprecipitated with anti-DDX5 overnight at 4°C, eluted with 0.2 M glycine pH 2.6, NativePAGE 3-12% Bis-Tris, immunoblots
[4] = target: FLAG-DDX5 (RNA helicase DEAD box protein 5, wild type) (UniProt P17844); test: SEC; native nuclear lysates of Dox-inducible FLAG-DDX5 HepaRG cells fractionated on Superdex 200 Increase; fractions (750 kDa to below 360 kDa) analysed by immunoblot and LC-MS/MS; also lysates treated with benzonase (125 U/mg, 45 min on ice) or RNase A (10 µg/mg, 30 min, room temperature) before SEC

Measured: binding

RBBP4, auxiliary PRC2 subunit (from UniProt Q09028 1-425)
binds: all assays above

SUZ12, core PRC2 subunit (from UniProt Q15022 1-739)
binds: all assays above

interferon-inducible protein 16 (IFI16) (from UniProt Q16666 1-785)
binds: all assays above
